# Reference: publication PMC7910438, “The TUTase URT1 connects decapping activators and prevents the accumulation of excessively deadenylated mRNAs to avoid siRNA biogenesis” (Nature Communications, 2021)
# The chains behind the UniProt entries cited, without tags or fusion partners. Where a name states a change or a piece, a line headed by the entry shows the natural chain unless it says otherwise.
# UniProt F4JZU5: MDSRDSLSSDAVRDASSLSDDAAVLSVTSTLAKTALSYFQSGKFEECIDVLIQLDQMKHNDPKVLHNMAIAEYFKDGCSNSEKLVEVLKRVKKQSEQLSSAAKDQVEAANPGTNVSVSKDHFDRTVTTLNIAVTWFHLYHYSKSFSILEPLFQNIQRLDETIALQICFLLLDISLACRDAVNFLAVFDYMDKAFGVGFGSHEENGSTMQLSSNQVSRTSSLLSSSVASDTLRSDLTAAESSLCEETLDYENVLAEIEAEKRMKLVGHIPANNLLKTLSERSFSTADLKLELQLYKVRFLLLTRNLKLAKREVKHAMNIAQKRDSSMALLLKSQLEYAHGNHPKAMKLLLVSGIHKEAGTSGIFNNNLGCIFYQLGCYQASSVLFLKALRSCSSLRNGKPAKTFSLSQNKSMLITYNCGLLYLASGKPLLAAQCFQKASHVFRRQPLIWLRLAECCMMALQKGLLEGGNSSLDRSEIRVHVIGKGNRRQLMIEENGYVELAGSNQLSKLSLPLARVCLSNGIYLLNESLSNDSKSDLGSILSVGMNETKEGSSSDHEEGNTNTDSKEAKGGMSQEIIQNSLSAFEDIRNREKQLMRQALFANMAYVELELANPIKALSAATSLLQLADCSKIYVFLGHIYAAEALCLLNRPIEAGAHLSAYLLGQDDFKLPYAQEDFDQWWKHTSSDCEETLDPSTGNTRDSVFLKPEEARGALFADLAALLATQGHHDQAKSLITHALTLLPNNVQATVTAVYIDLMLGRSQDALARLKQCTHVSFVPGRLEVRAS
# UniProt Q76E23: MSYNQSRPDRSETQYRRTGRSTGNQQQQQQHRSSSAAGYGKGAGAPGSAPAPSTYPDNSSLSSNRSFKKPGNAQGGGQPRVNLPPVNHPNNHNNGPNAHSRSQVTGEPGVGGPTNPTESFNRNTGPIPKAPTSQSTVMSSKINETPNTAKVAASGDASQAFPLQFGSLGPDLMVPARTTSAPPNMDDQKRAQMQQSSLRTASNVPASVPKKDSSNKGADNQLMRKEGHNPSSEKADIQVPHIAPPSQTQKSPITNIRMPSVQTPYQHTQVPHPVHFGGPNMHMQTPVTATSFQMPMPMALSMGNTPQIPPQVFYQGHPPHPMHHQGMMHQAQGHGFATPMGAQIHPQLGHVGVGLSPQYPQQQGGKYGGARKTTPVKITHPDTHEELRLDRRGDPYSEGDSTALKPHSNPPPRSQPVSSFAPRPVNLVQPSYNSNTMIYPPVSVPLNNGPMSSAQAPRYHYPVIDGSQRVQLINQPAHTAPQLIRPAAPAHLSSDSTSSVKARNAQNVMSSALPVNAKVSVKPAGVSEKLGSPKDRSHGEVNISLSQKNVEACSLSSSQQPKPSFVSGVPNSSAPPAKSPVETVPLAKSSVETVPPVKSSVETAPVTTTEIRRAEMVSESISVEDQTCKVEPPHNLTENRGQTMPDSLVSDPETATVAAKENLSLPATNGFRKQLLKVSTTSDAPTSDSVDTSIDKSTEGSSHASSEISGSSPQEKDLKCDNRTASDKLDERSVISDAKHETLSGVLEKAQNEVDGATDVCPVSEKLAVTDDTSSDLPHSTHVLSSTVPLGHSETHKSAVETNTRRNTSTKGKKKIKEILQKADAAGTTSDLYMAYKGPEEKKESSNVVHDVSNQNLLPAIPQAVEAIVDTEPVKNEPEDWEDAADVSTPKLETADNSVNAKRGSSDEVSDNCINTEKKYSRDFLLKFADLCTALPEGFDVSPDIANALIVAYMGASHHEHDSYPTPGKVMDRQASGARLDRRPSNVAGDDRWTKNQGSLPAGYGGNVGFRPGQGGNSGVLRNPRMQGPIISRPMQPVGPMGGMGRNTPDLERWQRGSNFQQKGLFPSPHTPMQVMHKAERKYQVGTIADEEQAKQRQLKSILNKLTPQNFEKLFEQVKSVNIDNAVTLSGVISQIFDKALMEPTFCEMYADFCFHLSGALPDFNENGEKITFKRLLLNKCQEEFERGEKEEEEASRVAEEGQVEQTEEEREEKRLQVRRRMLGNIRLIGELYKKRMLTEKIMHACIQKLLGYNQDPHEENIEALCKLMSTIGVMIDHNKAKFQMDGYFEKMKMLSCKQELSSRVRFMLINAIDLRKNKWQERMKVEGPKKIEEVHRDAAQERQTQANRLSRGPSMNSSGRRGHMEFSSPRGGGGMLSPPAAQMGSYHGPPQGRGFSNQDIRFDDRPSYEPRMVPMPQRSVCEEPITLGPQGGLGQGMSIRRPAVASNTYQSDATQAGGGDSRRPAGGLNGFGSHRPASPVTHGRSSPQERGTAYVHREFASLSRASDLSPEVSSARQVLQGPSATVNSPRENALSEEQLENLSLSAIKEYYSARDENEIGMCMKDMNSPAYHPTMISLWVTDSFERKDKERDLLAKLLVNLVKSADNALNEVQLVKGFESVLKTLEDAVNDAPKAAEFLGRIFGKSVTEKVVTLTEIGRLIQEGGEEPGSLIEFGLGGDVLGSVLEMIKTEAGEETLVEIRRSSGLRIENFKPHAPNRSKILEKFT
# Results are given in words; binding and its absence hold for the method and conditions named. Binding seen in cells or lysates may run through a third protein. These calls come from enrichment with a bait or labelling near it, and not all partners need be listed. For part of these data: No binding means not detected with the bait. Tags and fused reporters may be left off the sequences shown.
# T1: URT1 (UTP:RNA U… 1) tagged with myc or YFP (Arabidopsis thaliana) (UniProt O64642)
# T1 sequence: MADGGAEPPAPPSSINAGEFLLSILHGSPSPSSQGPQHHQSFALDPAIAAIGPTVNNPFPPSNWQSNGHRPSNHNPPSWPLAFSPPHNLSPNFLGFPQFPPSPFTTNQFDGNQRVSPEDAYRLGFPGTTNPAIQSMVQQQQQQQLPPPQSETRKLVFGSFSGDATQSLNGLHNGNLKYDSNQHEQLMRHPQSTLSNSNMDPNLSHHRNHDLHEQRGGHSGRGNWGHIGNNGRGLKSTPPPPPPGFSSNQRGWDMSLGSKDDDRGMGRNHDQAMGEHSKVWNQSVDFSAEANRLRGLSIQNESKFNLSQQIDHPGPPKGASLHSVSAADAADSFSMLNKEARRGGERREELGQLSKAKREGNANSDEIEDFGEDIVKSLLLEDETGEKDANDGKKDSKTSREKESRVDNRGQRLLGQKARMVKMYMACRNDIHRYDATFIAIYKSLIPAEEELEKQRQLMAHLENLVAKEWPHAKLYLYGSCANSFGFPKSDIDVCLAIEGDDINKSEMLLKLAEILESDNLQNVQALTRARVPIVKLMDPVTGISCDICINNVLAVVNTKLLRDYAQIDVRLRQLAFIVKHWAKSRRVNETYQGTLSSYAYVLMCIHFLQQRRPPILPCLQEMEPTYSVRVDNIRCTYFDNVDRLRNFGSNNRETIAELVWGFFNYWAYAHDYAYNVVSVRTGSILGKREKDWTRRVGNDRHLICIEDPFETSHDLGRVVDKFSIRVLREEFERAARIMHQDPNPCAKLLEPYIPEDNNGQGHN
# T2: URT1-myc (Arabidopsis thaliana) (UniProt O64642)
# T2 sequence: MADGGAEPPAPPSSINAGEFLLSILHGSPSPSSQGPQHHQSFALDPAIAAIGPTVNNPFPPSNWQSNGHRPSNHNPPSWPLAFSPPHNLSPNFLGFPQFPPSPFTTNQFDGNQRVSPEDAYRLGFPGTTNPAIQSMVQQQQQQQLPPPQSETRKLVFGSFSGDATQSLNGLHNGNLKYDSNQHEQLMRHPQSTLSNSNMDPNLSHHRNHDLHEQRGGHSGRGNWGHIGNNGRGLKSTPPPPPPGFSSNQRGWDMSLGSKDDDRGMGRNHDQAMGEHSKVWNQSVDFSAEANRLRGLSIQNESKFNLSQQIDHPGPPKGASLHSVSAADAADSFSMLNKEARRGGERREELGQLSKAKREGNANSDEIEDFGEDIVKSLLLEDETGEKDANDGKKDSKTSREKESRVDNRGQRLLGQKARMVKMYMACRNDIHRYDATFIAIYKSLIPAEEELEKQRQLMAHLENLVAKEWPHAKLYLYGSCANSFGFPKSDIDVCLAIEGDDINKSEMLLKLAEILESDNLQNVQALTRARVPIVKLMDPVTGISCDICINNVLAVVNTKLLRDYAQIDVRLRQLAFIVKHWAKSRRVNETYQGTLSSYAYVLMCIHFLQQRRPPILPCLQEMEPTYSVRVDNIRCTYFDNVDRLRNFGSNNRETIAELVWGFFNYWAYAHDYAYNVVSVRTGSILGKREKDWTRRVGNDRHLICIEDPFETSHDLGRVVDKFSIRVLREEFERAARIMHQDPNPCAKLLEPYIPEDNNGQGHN
# Legend:
# [1] = molecular target: T1, URT1 (UTP:RNA U… 1) tagged with myc or YFP (Arabidopsis thaliana); assay: affinity purification with mass spectrometry; Arabidopsis flower bud extracts cross-linked with 0.375% formaldehyde; tagged URT1 captured on anti-c-myc or anti-GFP magnetic microbeads; washes 50 mM Tris-HCl pH 7.5, 50 mM NaCl, 0.1% Triton X-100; nanoLC-MS/MS, spectral counts against control IPs (Fig. 2a) or m1URT1-myc against URT1-myc (Fig. 2f)
# [2] = molecular target: T1, URT1 (UTP:RNA U… 1) tagged with myc or YFP (Arabidopsis thaliana); assay: affinity purification with mass spectrometry; without crosslinking; Arabidopsis flower buds or seedlings in 50 mM Tris-HCl pH 8, 50 mM NaCl, 1% Triton X-100; anti-c-myc or anti-GFP magnetic microbeads; nanoLC-MS/MS against Col-0 control IPs (Fig. 2b)
# [3] = molecular target: T1, URT1 (UTP:RNA U… 1) tagged with myc or YFP (Arabidopsis thaliana); assay: affinity purification with mass spectrometry; Arabidopsis flower bud extracts cross-linked with 0.375% formaldehyde; tagged URT1 captured on anti-c-myc or anti-GFP magnetic microbeads; washes 50 mM Tris-HCl pH 7.5, 50 mM NaCl, 0.1% Triton X-100; nanoLC-MS/MS, spectral counts against control IPs (Fig. 2a) or m1URT1-myc against URT1-myc (Fig. 2f); remark: listed apart in the source
# [4] = molecular target: T2, URT1-myc (Arabidopsis thaliana); assay: as above
molecule,measurement,setting,value
CNOT1,binding,[1],binds
CNOT10 (from UniProt F4JZU5),binding,[1],binds
CNOT11,binding,[1],binds
DCP1,binding,[1],no binding
EXA1 homolog AT1G24300 (GYF protein),binding,[1],binds
EXA1 homolog AT1G27430 (GYF protein),binding,[1],binds
translation initiation factor eIF4G (from UniProt Q76E23 1-1727),binding,[2],binds
… FOR POTEXVIRUS ACCUMULATION 1 (EXA1) (from UniProt Q9FMM3 1-1714),binding,[1],binds
"… 5 (DCP5), endogenous (protein, UniProt Q9C658 1-611) MAADNTGSKSSSAADSYVGSLISLTSKSEIRYEGILYNINTDESSIGLQNVRSFGTEGRKKDGPQVPPSDKVYEYILFRGTDIKDLQVKASPPVQPPASTINNDPAIIQSHYPSPMPTSGSLPSTASGSLPDISSHNGQPGQHGMGFQNAMPLYQPGGNLGSWGASPQPPMYWQGFYTPPPNGLPQLHQQSLIRPPHGLPMPNSLQQPLQYPNFNTPPPPTGSSSLQGSSLPEAPSSLFPFSTSSQMLAPSSLPFPGLPPVTLSSSLQSTLQSAPSPSLASEMAPPLLSNKAPITAPPTLPQDTNLLSFSLSTTRATEASTGLPLSNKPSVVTGPISPPQTTPLTSAPVAGVSSSISQDKPKPLLVTPGQLLQSGSSAVSLSPPSTNADKDVEVVQVSSSAGLEQSVPVTSEAQPPILPLPSSARPTQKPNGHSFPNHNGYRGRGRGRGRGAGRSHQVMKFTEDFDFTAMNEKFNKDEVWGHLGKSTTLDGDEDDDSPTVDEAELPKIEAKPVYNKDDFFDSLSSNTIDRESQNSRPRFSEQRKLDTETFGEFSRFRGGRGGRGGYGRNNGYSRGGYGGRGYGGYGGRGGGGGGYGYGGRGQGRGVSNRTT",binding,[2],binds
same,binding,[3],binds
same,binding,[4],binds
"… 5-LIKE (DCP5-L) (protein, UniProt Q9FH77 1-571) MASESSQSSSPSSSQPPSSVPSPSPGNNVGDTFIGSFISLISKYEIRYEGILYHLNVQDSTLGLKNVRSCGTEGRKKDGPQIPPCDKVYDYILFRGSDIKDLQVNPSPSAQSRQEIQSEQDVNQSPHSRPAMTMSSPISGYDSGYGLGRGSQWINTPALSSKPVPVTQHSSVPLSFQPPSANAGSLTESPVSLIDSTQSNAGSSMPIPSFVQGNKFASSGVPLGMMQKPVSSSSTIPNGPQIIDYFSSPIMGLVDDSSQVVTRSPDVSSNQSYSSNPSPLGQTQLHTPPGLASVSSNLSPPSEAQLSAPNIQKIYPSAPQAIGKVVYDPQSNHPHRSIPHELPAVASNSAPVIPGPLSKSPESFFDMDPSLQSRQQMVYRGQEMFAATNPASANVPSQSFAPRNHAPLLPLPVSAHQSRIPSSSIEYTEEFDFEAMNEKFKKSELWGYLGRNNQRNQNDYGEETAIEPNAEGKPAYNKDDFFDTISCNQLDRVARSGQQHNQFPEHMRQVPEAFGNNFQRPPPLQPGQGAYLAAQTNYRGGYHNNNNNNYYSNSGYGYYSGGRGRGRNTHF",binding,[3],binds
same,binding,[4],binds
"new cap-binding protein (nCBP) (protein, UniProt Q9FK59 1-221) MEVLDRRDDEIRDSGNMDSIKSHYVTDSVSEERRSRELKDGDHPLRYKFSIWYTRRTPGVRNQSYEDNIKKMVEFSTVEGFWACYCHLARSSLLPSPTDLHFFKDGIRPLWEDGANCNGGKWIIRFSKVVSARFWEDLLLALVGDQLDDADNICGAVLSVRFNEDIISVWNRNASDHQAVMGLRDSIKRHLKLPHAYVMEYKPHDASLRDNSSYRNTWLRG",binding,[3],binds
"PAT1 (protein, UniProt Q0WPK4 1-793) MDAFGIGSSLNQAPVTQDLKKFGDNSTGNTMFDASQYAFFGNDVVEEVELGGLEEEDEILSFTGIAEDFSFDKEEVGDSRLLSDVDDLASTFSKLNREPDVYSNTGPITDRRSSQNSLAAEWTHGEELPNWYGRQILDSDAIKDDKVWSAQPFSSLDRVEQRIPDRTKLYPEPQRQLHQDHNQQQFSSEPILVPKSSFVSYPPPGSISPDQRLGHPNIPYQSGGPQMGSPNFSPFPNLQPQLPSMHHGSPQHTGNRPQFRPALPLNNLPPAQWMNRQNMHPGDSSGIMNNAMLQQPPHQNGLMPPQMQGSQNRLPHPMQPPLGHMPGMQPQLFNSHLSRSSSSGNYDGMLGFGDLREVRPGSGHGNRQNVRFPQQGFDAGVQRRYPFRSKYMSAGEIENILRMQLVATHSNDPYVDDYYHQACLAKKSAGAKLKHHFCPNHLRDLQQRARSNNEPHAFLQVEALGRVPFSSIRRPRPLLEVDPPNSAKFGNAEHKPTDKPLDQEPMLAARVYIEDGLCLLLEVDDIDRFLEFNQLQDGGHQLKQRRQALLQSLAVSLQLGDPLAKNGQSQSLDDFLFLRVISLPKGRKLLIRYLQLIFPGSDLMRIVCMAIFRHLRSLFGVLSSDPDIIKTTNKLATVINLCIQNMELGPVSTCLAAVSCSSEQAPLRPLGSPVGDGASTVLKSILDRASELIRANNFNNAGIALWRASFNEFFNMLMRYCISKYDSIMQSLQLPPHFATEISEEAAKAIVREMPIELLRSSFPHIDEQQKRILMEFLKRSMLGSQKTEPVLS",binding,[3],binds
